No constants are given. Whether binding was seen depends on the method and setting. In cells and extracts the contact can be indirect. Binding calls can cover weak binding; strength is not graded here.
Target: T1, sodium hydrogen exchange regulatory factor 1 (NHERF1) (mouse (endogenous in primary osteoclasts)) (UniProt P70441)
T1 sequence: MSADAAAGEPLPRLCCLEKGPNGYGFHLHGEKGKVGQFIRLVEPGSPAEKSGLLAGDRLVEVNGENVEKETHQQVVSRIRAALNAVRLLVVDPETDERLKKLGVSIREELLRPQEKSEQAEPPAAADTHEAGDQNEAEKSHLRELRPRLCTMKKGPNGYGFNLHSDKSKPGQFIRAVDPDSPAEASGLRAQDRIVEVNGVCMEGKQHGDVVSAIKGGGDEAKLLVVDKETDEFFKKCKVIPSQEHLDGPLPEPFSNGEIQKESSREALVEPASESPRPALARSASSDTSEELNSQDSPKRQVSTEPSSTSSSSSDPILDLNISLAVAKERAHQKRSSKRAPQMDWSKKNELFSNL
Assay: co-IP; differentiated osteoclasts (splenocytes, M-CSF and RANKL for 4 days) stimulated with clustered EphB2-Fc for 5 min, cross-linked with dithiobis (succinimidyl) propionate, lysed (50 mM HEPES pH 7.5, 100 mM NaCl, 10 mM EDTA, 10% glycerol, 1% Triton X-100); 300 µg lysate, 4 µg anti-NHERF1 or control IgG, protein A/G-Sepharose, 4°C; Western blot for ephrin B1

## ephrin B1
  binding: binds
